Measured values reported in patent publication EP4793360A2.
Numbering of substitutions follows the chain as printed. Names may count otherwise. These are yes or no findings as the source states them, for the method shown. A result given as binding can be weak or reduced; the word gives no strength. Each block holds one binder with its values, some of them ahead of it.

The chains behind the UniProt entries cited, without tags or fusion partners. Where a name states a change or a piece, a line headed by the entry shows the natural chain unless it says otherwise.
UniProt P00740: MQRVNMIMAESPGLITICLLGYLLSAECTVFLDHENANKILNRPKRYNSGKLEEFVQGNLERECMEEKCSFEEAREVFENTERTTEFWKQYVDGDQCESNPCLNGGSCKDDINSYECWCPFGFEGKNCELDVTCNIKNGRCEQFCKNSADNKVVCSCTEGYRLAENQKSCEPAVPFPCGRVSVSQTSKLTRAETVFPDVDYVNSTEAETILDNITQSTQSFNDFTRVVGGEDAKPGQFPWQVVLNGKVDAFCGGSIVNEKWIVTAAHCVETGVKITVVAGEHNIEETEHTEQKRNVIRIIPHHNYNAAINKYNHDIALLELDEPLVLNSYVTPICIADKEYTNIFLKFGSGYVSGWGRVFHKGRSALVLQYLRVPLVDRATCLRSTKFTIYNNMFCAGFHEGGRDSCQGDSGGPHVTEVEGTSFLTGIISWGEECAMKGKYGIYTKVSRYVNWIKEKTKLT

Columns and labels:
[1] = target: Factor IXaβ (Enzyme Research Laboratories) (UniProt P00740); test: ELISA, Factor IXa coated on plate (Fig. 5 legend)
[2] = target: Factor IXaβ (Enzyme Research Laboratories) (UniProt P00740); test: ELISA, Factor IXaβ coated at 1 µg/ml, absorbance at 405 nm
[3] = target: Factor IXaβ (Enzyme Research Laboratories) (UniProt P00740); test: ELISA, Factor IXaβ / Factor IXa coated at 1 µg/ml (both procedures of Example 7)
[4] = target: Factor IXaβ (Enzyme Research Laboratories) (UniProt P00740); test: ELISA, Factor IXa coated at 1 µg/ml, anti-human IgG4 detection, absorbance at 650 nm

B1: humanized A69 antibody (hA69a) (antibody, human IgG4, V domains shown)
VH: QVQLVQSGAEVKKPGSSVKVSCKASGGTFSDYYMHWVRQAPGQGLEWMGYINPSSGYTKYNRKFRDRVTITADKSTSTAYMELSSLRSEDTAVYYCARGGNGYYLDYWGQGTTVTVSS
VL: DIVMTQSPSSLSASVGDRVTITCKASQNVGTAVAWYQQKPGKAPKLLIYSASYRYSGVPSRFSGSRYGTDFTLTISSLQPEDLATYYCQQYSNYITFGGGTKVEIK
binding [1]: binds
binding [2]: binds

B4: hA69-PF (humanized A69 antibody homodimer) (antibody, human IgG4, V domains shown)
VH: B1 VH with Q1E, K12V, K23T, G27Y, Q43E, N101L, Q110E
VL: B1 VL with G99Q
binding [1]: binds
binding [4]: binds

Continued, values first:

binding [1]: binds
binding [3]: binds
B2: hA69-N97R (modified form of humanized A69 antibody) (antibody, V domains shown)
VH: B1 VH with N101R
VL: B1 VL
modifications: N-terminal glutamine assumed to be pyroglutamylated (Pyr(Q) at H1)

binding [1]: binds
binding [4]: binds
B3: hA69-p18 (modified form of humanized A69 antibody) (antibody, V domains shown)
VH: B1 VH with Q43E, Q110E
VL: B1 VL
modifications: N-terminal glutamine assumed to be pyroglutamylated (Pyr(Q) at H1)
